Measurements reported in the supplement of paper PMC10849652.
The list shows a part of the results.

The chains behind the UniProt entries cited, without tags or fusion partners. Where a name states a change or a piece, a line headed by the entry shows the natural chain unless it says otherwise.
UniProt Q14019: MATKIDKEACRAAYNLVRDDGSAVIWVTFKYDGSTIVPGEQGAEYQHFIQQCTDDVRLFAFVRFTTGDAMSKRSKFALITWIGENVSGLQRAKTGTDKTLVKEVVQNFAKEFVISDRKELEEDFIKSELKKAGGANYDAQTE
UniProt P15954, whole entry, looked up: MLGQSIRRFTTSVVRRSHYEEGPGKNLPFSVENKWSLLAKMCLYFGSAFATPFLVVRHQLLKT
UniProt O75131: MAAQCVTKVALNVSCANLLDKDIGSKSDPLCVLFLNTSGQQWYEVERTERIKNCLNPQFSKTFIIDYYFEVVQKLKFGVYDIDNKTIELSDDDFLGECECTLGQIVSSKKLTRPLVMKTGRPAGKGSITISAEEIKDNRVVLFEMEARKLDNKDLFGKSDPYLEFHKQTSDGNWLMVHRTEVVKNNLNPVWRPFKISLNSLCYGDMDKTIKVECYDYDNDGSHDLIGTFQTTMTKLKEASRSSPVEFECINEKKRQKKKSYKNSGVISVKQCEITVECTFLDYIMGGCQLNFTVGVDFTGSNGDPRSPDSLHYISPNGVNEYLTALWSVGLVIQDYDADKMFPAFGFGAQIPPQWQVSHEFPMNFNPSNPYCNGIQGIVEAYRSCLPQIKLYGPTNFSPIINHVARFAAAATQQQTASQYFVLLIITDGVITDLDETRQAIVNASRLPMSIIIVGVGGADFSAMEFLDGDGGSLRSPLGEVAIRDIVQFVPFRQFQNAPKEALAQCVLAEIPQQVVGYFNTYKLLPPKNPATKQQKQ
UniProt P36551: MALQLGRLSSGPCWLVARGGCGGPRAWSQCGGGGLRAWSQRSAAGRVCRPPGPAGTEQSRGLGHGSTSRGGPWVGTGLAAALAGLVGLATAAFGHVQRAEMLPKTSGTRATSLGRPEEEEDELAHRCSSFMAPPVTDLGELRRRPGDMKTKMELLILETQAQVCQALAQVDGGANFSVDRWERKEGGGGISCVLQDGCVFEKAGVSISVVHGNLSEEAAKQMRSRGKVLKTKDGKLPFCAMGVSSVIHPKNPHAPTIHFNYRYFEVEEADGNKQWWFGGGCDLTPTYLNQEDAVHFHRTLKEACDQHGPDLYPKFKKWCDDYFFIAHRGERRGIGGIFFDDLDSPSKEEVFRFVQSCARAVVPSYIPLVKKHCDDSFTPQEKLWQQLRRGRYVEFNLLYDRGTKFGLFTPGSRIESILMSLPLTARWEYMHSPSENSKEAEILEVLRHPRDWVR
UniProt P31327: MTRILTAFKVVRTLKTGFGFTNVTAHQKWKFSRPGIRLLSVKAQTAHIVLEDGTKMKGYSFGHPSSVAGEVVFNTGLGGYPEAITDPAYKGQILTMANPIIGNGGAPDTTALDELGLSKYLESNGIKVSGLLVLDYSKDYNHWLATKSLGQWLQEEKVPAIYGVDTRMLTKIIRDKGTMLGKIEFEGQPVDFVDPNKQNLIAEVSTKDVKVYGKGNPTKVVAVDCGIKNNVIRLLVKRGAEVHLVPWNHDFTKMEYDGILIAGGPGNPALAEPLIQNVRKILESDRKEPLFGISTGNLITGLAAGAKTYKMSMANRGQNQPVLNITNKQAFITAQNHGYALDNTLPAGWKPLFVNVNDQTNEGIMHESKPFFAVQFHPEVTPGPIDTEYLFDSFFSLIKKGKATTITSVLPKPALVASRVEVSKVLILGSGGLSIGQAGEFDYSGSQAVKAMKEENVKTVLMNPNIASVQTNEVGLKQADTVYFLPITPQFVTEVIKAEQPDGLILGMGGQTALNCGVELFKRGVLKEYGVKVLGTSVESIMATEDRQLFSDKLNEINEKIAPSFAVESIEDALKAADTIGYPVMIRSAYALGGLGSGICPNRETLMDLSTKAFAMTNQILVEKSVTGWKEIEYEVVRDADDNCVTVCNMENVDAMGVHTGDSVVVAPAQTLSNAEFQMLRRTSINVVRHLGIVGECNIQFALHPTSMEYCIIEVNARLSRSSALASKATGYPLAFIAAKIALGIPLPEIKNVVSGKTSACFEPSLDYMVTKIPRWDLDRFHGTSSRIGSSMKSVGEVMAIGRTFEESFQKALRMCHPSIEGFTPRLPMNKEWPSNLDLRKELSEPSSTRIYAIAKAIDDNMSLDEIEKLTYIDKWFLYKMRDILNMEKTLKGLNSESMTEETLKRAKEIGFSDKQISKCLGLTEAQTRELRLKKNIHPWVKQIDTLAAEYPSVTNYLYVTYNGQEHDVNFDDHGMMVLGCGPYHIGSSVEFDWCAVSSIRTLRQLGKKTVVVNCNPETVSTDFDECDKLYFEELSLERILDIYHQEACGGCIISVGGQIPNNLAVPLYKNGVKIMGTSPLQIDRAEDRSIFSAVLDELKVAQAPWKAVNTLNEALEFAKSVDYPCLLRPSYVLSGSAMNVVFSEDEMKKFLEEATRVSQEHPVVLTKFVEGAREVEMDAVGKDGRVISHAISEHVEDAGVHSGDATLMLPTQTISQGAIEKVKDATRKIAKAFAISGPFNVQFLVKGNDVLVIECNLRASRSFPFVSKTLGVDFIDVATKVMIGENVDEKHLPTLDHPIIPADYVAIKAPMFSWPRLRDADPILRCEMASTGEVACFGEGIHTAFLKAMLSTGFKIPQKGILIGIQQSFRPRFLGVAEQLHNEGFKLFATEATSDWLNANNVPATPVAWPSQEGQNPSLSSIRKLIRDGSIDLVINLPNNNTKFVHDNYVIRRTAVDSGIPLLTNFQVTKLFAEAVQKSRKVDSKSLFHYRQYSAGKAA
UniProt P50416: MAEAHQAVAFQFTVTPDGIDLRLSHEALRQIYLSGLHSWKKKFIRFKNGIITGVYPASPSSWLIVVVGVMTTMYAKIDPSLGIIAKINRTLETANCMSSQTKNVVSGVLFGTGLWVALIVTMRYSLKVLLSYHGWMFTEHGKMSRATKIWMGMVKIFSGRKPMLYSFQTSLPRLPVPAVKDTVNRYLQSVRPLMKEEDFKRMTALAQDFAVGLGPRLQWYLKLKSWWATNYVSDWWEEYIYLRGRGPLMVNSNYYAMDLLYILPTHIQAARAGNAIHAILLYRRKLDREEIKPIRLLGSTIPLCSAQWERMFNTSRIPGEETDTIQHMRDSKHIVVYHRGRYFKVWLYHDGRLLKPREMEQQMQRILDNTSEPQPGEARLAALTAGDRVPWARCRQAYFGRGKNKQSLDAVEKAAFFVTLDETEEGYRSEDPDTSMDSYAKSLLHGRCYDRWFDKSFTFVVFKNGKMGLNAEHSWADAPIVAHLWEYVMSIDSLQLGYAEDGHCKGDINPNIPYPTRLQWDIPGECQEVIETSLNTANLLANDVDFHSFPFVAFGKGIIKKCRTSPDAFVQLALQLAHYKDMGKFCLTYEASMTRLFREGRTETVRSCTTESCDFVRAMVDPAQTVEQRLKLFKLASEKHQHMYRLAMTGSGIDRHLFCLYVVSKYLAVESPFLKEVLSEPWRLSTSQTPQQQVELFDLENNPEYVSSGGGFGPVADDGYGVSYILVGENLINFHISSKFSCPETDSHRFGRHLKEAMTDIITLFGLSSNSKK
UniProt Q9BSW2: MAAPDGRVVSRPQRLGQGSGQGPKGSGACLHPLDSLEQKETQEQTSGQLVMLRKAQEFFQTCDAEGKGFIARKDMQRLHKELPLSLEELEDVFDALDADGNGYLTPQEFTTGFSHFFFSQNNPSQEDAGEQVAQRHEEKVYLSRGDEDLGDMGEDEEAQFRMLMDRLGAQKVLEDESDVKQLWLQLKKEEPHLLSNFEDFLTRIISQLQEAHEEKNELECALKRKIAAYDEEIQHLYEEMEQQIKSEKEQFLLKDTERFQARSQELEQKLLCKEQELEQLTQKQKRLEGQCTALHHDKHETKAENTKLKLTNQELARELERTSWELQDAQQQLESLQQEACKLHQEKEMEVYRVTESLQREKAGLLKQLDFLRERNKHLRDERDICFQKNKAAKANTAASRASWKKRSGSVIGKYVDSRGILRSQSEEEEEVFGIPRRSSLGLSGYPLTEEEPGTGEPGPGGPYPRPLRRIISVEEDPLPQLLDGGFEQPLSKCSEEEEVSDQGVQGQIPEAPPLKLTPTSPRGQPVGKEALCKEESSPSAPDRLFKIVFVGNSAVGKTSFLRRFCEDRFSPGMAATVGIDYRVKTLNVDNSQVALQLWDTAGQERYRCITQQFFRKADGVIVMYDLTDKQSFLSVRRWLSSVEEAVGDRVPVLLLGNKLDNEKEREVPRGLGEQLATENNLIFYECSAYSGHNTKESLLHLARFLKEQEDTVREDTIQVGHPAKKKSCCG
UniProt Q8WTW3: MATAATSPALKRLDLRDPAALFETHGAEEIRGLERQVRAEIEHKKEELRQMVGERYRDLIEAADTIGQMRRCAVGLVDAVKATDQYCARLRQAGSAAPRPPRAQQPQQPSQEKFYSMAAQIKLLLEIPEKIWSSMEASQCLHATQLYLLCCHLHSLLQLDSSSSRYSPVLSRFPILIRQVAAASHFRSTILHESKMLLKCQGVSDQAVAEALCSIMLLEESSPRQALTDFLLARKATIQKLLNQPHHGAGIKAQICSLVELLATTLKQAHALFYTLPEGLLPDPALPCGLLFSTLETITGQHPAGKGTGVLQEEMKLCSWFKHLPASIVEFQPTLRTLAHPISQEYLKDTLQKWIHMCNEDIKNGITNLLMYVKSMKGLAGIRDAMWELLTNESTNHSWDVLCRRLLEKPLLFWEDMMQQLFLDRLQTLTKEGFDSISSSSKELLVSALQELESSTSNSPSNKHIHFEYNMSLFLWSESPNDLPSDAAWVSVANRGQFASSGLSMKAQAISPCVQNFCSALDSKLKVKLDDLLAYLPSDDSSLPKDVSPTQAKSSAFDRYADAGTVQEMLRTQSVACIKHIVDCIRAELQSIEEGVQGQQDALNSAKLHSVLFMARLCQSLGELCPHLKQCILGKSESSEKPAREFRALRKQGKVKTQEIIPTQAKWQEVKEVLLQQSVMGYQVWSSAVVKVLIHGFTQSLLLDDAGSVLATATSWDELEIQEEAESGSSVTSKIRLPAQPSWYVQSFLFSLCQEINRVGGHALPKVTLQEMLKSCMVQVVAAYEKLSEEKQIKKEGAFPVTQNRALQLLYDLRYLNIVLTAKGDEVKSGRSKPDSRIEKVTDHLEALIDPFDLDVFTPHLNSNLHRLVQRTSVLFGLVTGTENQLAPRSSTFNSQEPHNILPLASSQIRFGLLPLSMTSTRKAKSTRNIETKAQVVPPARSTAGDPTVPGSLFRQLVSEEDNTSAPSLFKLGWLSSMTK
UniProt Q9UBL6: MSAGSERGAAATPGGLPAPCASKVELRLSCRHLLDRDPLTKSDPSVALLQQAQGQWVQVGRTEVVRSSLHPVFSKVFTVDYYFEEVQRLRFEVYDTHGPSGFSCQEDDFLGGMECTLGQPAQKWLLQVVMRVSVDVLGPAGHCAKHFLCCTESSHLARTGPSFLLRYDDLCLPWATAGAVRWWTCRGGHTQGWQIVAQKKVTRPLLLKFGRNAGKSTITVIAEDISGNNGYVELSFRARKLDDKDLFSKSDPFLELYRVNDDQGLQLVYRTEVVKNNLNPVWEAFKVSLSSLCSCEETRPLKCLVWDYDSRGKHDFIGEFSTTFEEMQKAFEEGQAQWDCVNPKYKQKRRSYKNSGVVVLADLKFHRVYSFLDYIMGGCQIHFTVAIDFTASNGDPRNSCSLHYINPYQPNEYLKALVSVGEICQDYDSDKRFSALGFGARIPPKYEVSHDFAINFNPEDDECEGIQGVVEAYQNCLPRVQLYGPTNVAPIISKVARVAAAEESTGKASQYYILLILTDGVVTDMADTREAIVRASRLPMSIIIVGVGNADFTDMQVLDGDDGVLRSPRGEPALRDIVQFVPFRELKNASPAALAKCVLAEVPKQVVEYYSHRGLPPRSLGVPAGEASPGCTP
UniProt Q9H9E3: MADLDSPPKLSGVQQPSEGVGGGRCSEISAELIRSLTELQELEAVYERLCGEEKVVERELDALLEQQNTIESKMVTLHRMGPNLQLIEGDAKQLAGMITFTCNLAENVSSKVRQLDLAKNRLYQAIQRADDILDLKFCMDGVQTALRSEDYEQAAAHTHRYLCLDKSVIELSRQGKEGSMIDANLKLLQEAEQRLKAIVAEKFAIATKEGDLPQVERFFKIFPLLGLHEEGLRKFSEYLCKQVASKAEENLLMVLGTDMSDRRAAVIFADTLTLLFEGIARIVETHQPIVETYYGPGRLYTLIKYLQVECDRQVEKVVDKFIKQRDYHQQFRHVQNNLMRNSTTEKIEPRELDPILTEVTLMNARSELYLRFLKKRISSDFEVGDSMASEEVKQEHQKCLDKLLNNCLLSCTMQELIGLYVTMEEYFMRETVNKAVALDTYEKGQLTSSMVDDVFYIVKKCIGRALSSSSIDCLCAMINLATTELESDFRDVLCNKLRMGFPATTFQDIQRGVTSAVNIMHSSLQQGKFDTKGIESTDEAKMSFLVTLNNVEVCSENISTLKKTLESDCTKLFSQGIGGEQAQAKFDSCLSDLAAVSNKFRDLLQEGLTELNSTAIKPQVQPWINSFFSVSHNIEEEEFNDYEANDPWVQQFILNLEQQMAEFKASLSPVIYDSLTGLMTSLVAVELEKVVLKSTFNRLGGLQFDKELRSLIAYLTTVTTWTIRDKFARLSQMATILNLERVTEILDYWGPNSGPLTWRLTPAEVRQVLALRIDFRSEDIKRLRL

Legend:
Experiment in all cases: log2 fold change, soluble protein after heating vs DMSO (PISA); higher = thermal stabilisation; K562 lysate, 10 uM; active = over 0.2 and 3.5 SD of the protein, either way, in both replicates (recomputed)
nilotinib = compound: Cc1cn(-c2cc(NC(=O)c3ccc(C)c(Nc4nccc(-c5cccnc5)n4)c3)cc(C(F)(F)F)c2)cn1 [nilotinib]
Procedure, shortened: (§1)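 The values are log-two fold changes in thermal stability compared with solvent controls and come from duplicates. They were obtained by TMTpro 16plex LC-MS/MS, with channel sums equalised, on the supernatant after 21,000xg for 90 min. That supernatant came from crude K562 extract at 1 mg/mL protein treated with 10 μM compound for 30 min, heated for 3 min across 48°C-58°C, pooled and brought to 0.5% NP-40 at 4°C.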

[1] = compound: Cc1nc(Nc2n[nH]c3c2CN(C(=O)N[C@H](CN(C)C)c2ccccc2)C3(C)C)c2sccc2n1
Procedure, shortened: as §1

dasatinib = compound: Cc1nc(Nc2ncc(C(=O)Nc3c(C)cccc3Cl)s2)cc(N2CCN(CCO)CC2)n1 [dasatinib]
Procedure, shortened: as §1

[2] = compound: Cc1ncc(-c2ccnc(Nc3ccc(S(C)(=O)=O)cc3)n2)n1C(C)C
Procedure, shortened: as §1

[3] = compound: Cn1cc(-c2ccc3c(c2)CCN3C(=O)Cc2cccc(C(F)(F)F)c2)c2c(N)ncnc21
Procedure, shortened: as §1

quisinostat = compound: Cn1cc(CNCC2CCN(c3ncc(C(=O)NO)cn3)CC2)c2ccccc21 [quisinostat]
Procedure, shortened: as §1

tipifarnib = compound: Cn1cncc1[C@@](N)(c1ccc(Cl)cc1)c1ccc2c(c1)c(-c1cccc(Cl)c1)cc(=O)n2C [tipifarnib]
Procedure, shortened: as §1

[4] = compound: NC(=O)Nc1cc(-c2cccc(F)c2)sc1C(=O)N[C@H]1CCCNC1
Procedure, shortened: as §1

[5] = compound: NC(=O)c1cnc(N[C@@H]2CCCC[C@@H]2N)nc1Nc1cccc(-n2nccn2)c1
Procedure, shortened: as §1

[6] = compound: NC1(c2ccc(-c3nc4ccn5c(=O)[nH]nc5c4cc3-c3ccccc3)cc2)CCC1
Procedure, shortened: as §1

[7] = compound: NCC(=O)Nc1ccc(-n2nc(C(F)(F)F)cc2-c2ccc3c(ccc4ccccc43)c2)cc1
Procedure, shortened: as §1

vorinostat = compound: O=C(CCCCCCC(=O)Nc1ccccc1)NO [vorinostat]
Procedure, shortened: as §1

silmitasertib = compound: O=C(O)c1ccc2c(c1)nc(Nc1cccc(Cl)c1)c1ccncc12 [silmitasertib]
Procedure, shortened: as §1

[8] = compound: O=C1NC(=O)C(c2cnc3ccccn23)=C1c1cn2c3c(cc(F)cc13)CN(C(=O)N1CCCCC1)CC2
Procedure, shortened: as §1

entospletinib = compound: c1cn2cc(-c3ccc4cn[nH]c4c3)nc(Nc3ccc(N4CCOCC4)cc3)c2n1 [entospletinib]
Procedure, shortened: as §1

Measured: log2 fold change

COTL1 (UniProt Q14019)
inactive: nilotinib 0.021 | [1] 0.003 | dasatinib 0.024 | [2] 0.031 | [3] 0.023 | quisinostat 0.017 | tipifarnib 0.055 | [4] -0.075 | [5] -0.028 | [6] -0.011 | [7] -0.03 | vorinostat 0.147 | silmitasertib 0 | [8] -0.021 | entospletinib 0.023

COPRS (UniProt Q9NQ92)
inactive: nilotinib -0.122 | [1] 0.038 | dasatinib -0.037 | [2] 0.038 | [3] 0.017 | quisinostat -0.044 | tipifarnib 0.018 | [4] 0.041 | [5] -0.069 | [6] -0.04 | [7] -0.004 | vorinostat 0.003 | silmitasertib 0.014 | [8] -0.052 | entospletinib 0.046

COX7C (UniProt P15954)
inactive: nilotinib 0.039 | [1] 0.054 | dasatinib 0.058 | [2] 0.366 | [3] 0.019 | quisinostat 0.008 | tipifarnib -0.006 | [4] -0.021 | [5] 0.047 | [6] 0.036 | [7] -0.025 | vorinostat 0.045 | silmitasertib 0.138 | [8] -0.033 | entospletinib -0.21

COIL (UniProt P38432)
inactive: nilotinib -0.027 | [1] -0.022 | dasatinib 0.067 | [2] -0.107 | [3] 0.015 | quisinostat -0.079 | tipifarnib 0.033 | [4] 0.02 | [5] -0.001 | [6] 0.016 | [7] -0.137 | vorinostat -0.182 | silmitasertib -0.035 | [8] -0.03 | entospletinib 0.006

CPNE3 (UniProt O75131)
inactive: nilotinib -0.016 | [1] 0.014 | dasatinib -0.052 | [2] -0.003 | [3] 0.024 | quisinostat -0.029 | tipifarnib -0.01 | [4] -0.006 | [5] 0.008 | [6] -0.04 | [7] -0.004 | vorinostat -0.151 | silmitasertib 0.011 | [8] 0.002 | entospletinib 0

CNOT6 (UniProt Q9ULM6)
inactive: nilotinib 0.045 | [1] -0.004 | dasatinib -0.012 | [2] -0.024 | [3] 0.01 | quisinostat 0.014 | tipifarnib 0.094 | [4] 0.036 | [5] 0.006 | [6] -0.006 | [7] -0.031 | vorinostat -0.122 | silmitasertib -0.004 | [8] -0.046 | entospletinib -0.002

Taken from the listing (2 entries):
COIL (UniProt P38432)
inactive: nilotinib -0.027 | [1] -0.022 | dasatinib 0.067 | [2] -0.107 | [3] 0.015 | quisinostat -0.079 | tipifarnib 0.033 | [4] 0.02 | [5] -0.001 | [6] 0.016 | [7] -0.137 | vorinostat -0.182 | silmitasertib -0.035 | [8] -0.03 | entospletinib 0.006

CPNE3 (UniProt O75131)
inactive: nilotinib -0.016 | [1] 0.014 | dasatinib -0.052 | [2] -0.003 | [3] 0.024 | quisinostat -0.029 | tipifarnib -0.01 | [4] -0.006 | [5] 0.008 | [6] -0.04 | [7] -0.004 | vorinostat -0.151 | silmitasertib 0.011 | [8] 0.002 | entospletinib 0

(list continues)

CPOX (UniProt P36551)
inactive: nilotinib 0.072 | [1] -0.027 | dasatinib 0.077 | [2] -0.021 | [3] -0.012 | quisinostat 0.005 | tipifarnib 0.001 | [4] -0.018 | [5] -0.013 | [6] -0.018 | [7] 0.017 | vorinostat 0.136 | silmitasertib 0.09 | [8] -0.002 | entospletinib 0.015

CPS1 isoform 3 (UniProt P31327)
inactive: nilotinib 0.156 | [1] -0.006 | dasatinib 0.092 | [2] 0.019 | [3] -0.046 | quisinostat -0.285 | tipifarnib 0.052 | [4] 0.065 | [5] 0.194 | [6] 0.077 | [7] 0.093 | vorinostat 0.049 | silmitasertib -0.15 | [8] 0.027 | entospletinib -0.062

CPT1A (UniProt P50416)
active: quisinostat 0.308 | vorinostat 0.406
inactive: nilotinib -0.012 | [1] 0.049 | dasatinib 0.015 | [2] -0.022 | [3] 0.008 | tipifarnib 0.056 | [4] -0.09 | [5] -0.028 | [6] -0.038 | [7] -0.033 | silmitasertib -0.001 | [8] -0.002 | entospletinib -0.06

CORO7 isoform 3 (UniProt P57737)
inactive: nilotinib -0.006 | [1] 0.003 | dasatinib -0.032 | [2] 0.01 | [3] 0.019 | quisinostat -0.026 | tipifarnib 0.005 | [4] 0.012 | [5] -0.016 | [6] -0.013 | [7] -0.045 | vorinostat -0.176 | silmitasertib 0.042 | [8] 0.004 | entospletinib 0.005

COCH (UniProt O43405)
inactive: nilotinib -0.155 | [1] -0.084 | dasatinib 0.013 | [2] 0.097 | [3] -0.014 | quisinostat 0.039 | tipifarnib 0.011 | [4] 0.003 | [5] 0.007 | [6] -0.078 | [7] 0.028 | vorinostat 0.018 | silmitasertib 0.083 | [8] -0.003 | entospletinib -0.124

CRACR2A isoform 2 (UniProt Q9BSW2)
inactive: nilotinib 0.016 | [1] -0.005 | dasatinib 0.026 | [2] -0.035 | [3] 0.042 | quisinostat -0.108 | tipifarnib 0.003 | [4] 0.115 | [5] -0.09 | [6] -0.027 | [7] 0.022 | vorinostat -0.086 | silmitasertib 0.019 | [8] 0.073 | entospletinib -0.065

COX11 (UniProt Q9Y6N1)
inactive: nilotinib 0.128 | [1] -0.061 | dasatinib 0.025 | [2] -0.046 | [3] -0.025 | quisinostat 0.009 | tipifarnib -0.129 | [4] 0.002 | [5] -0.024 | [6] 0.005 | [7] 0.027 | vorinostat 0.123 | silmitasertib -0.089 | [8] 0.005 | entospletinib 0

COG1 (UniProt Q8WTW3)
inactive: nilotinib -0.032 | [1] 0.011 | dasatinib -0.106 | [2] -0.006 | [3] 0.025 | quisinostat -0.036 | tipifarnib 0.002 | [4] 0.052 | [5] 0.01 | [6] 0.071 | [7] 0 | vorinostat -0.213 | silmitasertib 0.008 | [8] 0.042 | entospletinib 0.053

COMMD2 (UniProt Q86X83)
inactive: nilotinib 0.13 | [1] 0.049 | dasatinib -0.016 | [2] -0.007 | [3] 0.025 | quisinostat 0.029 | tipifarnib 0.064 | [4] 0.03 | [5] -0.034 | [6] 0.055 | [7] 0.031 | vorinostat -0.026 | silmitasertib -0.005 | [8] -0.05 | entospletinib -0.033

CPT2 (UniProt P23786)
inactive: nilotinib -0.033 | [1] -0.01 | dasatinib -0.101 | [2] 0.013 | [3] 0.065 | quisinostat -0.131 | tipifarnib -0.011 | [4] 0.035 | [5] -0.013 | [6] -0.001 | [7] -0.036 | vorinostat -0.039 | silmitasertib 0.048 | [8] 0.042 | entospletinib 0.006

CPSF3 (UniProt Q9UKF6)
inactive: nilotinib -0.009 | [1] 0.01 | dasatinib -0.003 | [2] -0.005 | [3] 0.026 | quisinostat 0.016 | tipifarnib -0.013 | [4] -0.004 | [5] -0.014 | [6] 0.017 | [7] -0.037 | vorinostat -0.038 | silmitasertib 0.036 | [8] -0.042 | entospletinib 0.033

CPNE7 (UniProt Q9UBL6)
inactive: nilotinib 0.018 | [1] 0.019 | dasatinib 0.022 | [2] 0.035 | [3] 0.053 | quisinostat -0.055 | tipifarnib 0.001 | [4] 0.035 | [5] 0.034 | [6] -0.053 | [7] 0.086 | vorinostat -0.147 | silmitasertib 0.038 | [8] 0.046 | entospletinib 0.061

COG4 (UniProt Q9H9E3)
inactive: nilotinib -0.038 | [1] -0.01 | dasatinib -0.093 | [2] 0.008 | [3] 0.048 | quisinostat -0.047 | tipifarnib 0.006 | [4] 0.004 | [5] 0.001 | [6] 0.055 | [7] 0.101 | silmitasertib 0.022 | [8] -0.022 | entospletinib -0.023
active: vorinostat -0.333
